PubChem BioAssay AID652272 – Drosophila RNAi Screening Center | 2013

- Purpose: 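Finding fly genes that regulate Hedgehog signal transduction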 (primary screen)
- Cells: Drosophila clone 8 (Cl8) cells
- Reagents: long dsRNA against Drosophila genes
- Measurement: 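Plate reader light from a firefly reporter under a ptc promoter fragment that responds to Hedgehog, with Renilla light as transfection reference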
- Direction: firefly Hh reporter signal: higher = more ptc reporter light; Renilla reference signal: higher = more Renilla control light
- Rule for the call: 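Hit when the z-score averaged over two replicates is under -2 or over +3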
- Meaning of the calls: active = hit: reporter lowered or raised; inactive = not a hit
In all, the deposit lists about 21,000 reagents; below is a random part of those that have a named target and a result. In the full data, 503 (2.4%) were called active. 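Raw plate light values, not normalised; calls rest on replicate z-scores that were not deposited; hits include reporter decreases as well as increases.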 The numbers tell different reagents against one gene apart. No sequences are given here. Not stated in the record: the amount of reagent, the time to read-out.

Eip93F (Ecdysone-induced protein 93F) #1 → firefly Hh reporter signal, replicate 1 = 59057; firefly Hh reporter signal, replicate 2 = 3.39e5; Renilla reference signal, replicate 1 = 11776; Renilla reference signal, replicate 2 = 8133; call = inactive
Eip93F (Ecdysone-induced protein 93F) #2 → firefly Hh reporter signal, replicate 1 = 7.91e5; firefly Hh reporter signal, replicate 2 = 1.67e5; Renilla reference signal, replicate 1 = 42212; Renilla reference signal, replicate 2 = 17171; call = inactive
LanB1 → firefly Hh reporter signal, replicate 1 = 91877; firefly Hh reporter signal, replicate 2 = 58199; Renilla reference signal, replicate 1 = 3344; Renilla reference signal, replicate 2 = 2546; call = inactive
CG5810 → firefly Hh reporter signal, replicate 1 = 6.94e5; firefly Hh reporter signal, replicate 2 = 1.23e5; Renilla reference signal, replicate 1 = 40340; Renilla reference signal, replicate 2 = 594; call = inactive
ArfGAP3 (ADP-ribosylation factor GTPase activating protein 3) → firefly Hh reporter signal, replicate 1 = 1.27e5; firefly Hh reporter signal, replicate 2 = 1.14e5; Renilla reference signal, replicate 1 = 5040; Renilla reference signal, replicate 2 = 4692; call = inactive
CG14186 → firefly Hh reporter signal, replicate 1 = 69191; firefly Hh reporter signal, replicate 2 = 85168; Renilla reference signal, replicate 1 = 2576; Renilla reference signal, replicate 2 = 2928; call = inactive
Plap (Phospholipase A2 activator protein) → firefly Hh reporter signal, replicate 1 = 1.02e5; firefly Hh reporter signal, replicate 2 = 55666; Renilla reference signal, replicate 1 = 4474; Renilla reference signal, replicate 2 = 2745; call = inactive
CG2747 → firefly Hh reporter signal, replicate 1 = 94801; firefly Hh reporter signal, replicate 2 = 98216; Renilla reference signal, replicate 1 = 3777; Renilla reference signal, replicate 2 = 3144; call = inactive
Nep4 (Neprilysin 4) → firefly Hh reporter signal, replicate 1 = 1.01e5; firefly Hh reporter signal, replicate 2 = 54104; Renilla reference signal, replicate 1 = 4521; Renilla reference signal, replicate 2 = 2048; call = inactive
CG12883 → firefly Hh reporter signal, replicate 1 = 62041; firefly Hh reporter signal, replicate 2 = 95843; Renilla reference signal, replicate 1 = 1568; Renilla reference signal, replicate 2 = 2393; call = inactive
CG30159 → firefly Hh reporter signal, replicate 1 = 1.10e5; firefly Hh reporter signal, replicate 2 = 74897; Renilla reference signal, replicate 1 = 4856; Renilla reference signal, replicate 2 = 3168; call = inactive
CG11192 → firefly Hh reporter signal, replicate 1 = 71024; firefly Hh reporter signal, replicate 2 = 41532; Renilla reference signal, replicate 1 = 1268; Renilla reference signal, replicate 2 = 2010; call = inactive
Pcf11 (Pcf11 cleavage and polyadenylation factor subunit) → firefly Hh reporter signal, replicate 1 = 32956; firefly Hh reporter signal, replicate 2 = 21012; Renilla reference signal, replicate 1 = 2457; Renilla reference signal, replicate 2 = 512; call = inactive
CG17633 → firefly Hh reporter signal, replicate 1 = 96288; firefly Hh reporter signal, replicate 2 = 51218; Renilla reference signal, replicate 1 = 2328; Renilla reference signal, replicate 2 = 4544; call = inactive
